Source: patent US20210380703A1
No constants are given. Whether binding was seen depends on the method and setting. Where a sequence is shown, tags or fusion partners need not be part of it.

T1: His-tagged Human ACVR2B (human) (UniProt Q13705)
T1 sequence (looked up): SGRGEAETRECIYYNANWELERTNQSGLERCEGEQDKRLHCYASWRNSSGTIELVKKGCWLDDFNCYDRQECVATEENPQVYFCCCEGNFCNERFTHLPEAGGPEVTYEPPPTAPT

T2: His-tagged Mouse ACVR2B (mouse) (UniProt P27040)
T2 sequence (looked up): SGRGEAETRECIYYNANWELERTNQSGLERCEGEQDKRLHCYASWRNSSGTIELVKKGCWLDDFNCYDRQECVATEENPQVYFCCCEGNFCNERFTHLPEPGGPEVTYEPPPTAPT


Key:
[1] = target: T1, His-tagged Human ACVR2B (human); test: ELISA, coated His-tagged antigen, 10 pt
[2] = target: T2, His-tagged Mouse ACVR2B (mouse); test: ELISA, coated His-tagged antigen, 10 pt

binding [1] | binding [2] | Binder
no binding (tested: 1 uM) | no binding (tested: 1 uM) | 375_A04 (antibody, V domains shown) VH: EVQLLESGGGLVQPGGSLRLSCAASGFTFDSYGMNWVRQAPGKGLEWVAGINYNGGYKSYADSVKGRFTISRDNSKNTLYLQMNSLRAEDTAVYYCARAANWHDTALDYWGQGTLVTVSS VL: DIQMTQSPSSLSASVGDRVTITCRASQSILTYLNWYQQKPGKAPKLVIYYVNNLPSGVPSRFSGSGSGTDFTLTISSLQPEDFATYYCQQSYNSPLTFGGGTKVEIK
no binding (tested: 1 uM) | no binding (tested: 1 uM) | 375_A11 (antibody, V domains shown) VH: EVQLLESGGGLVQPGGSLRLSCAASGFTFSDYGMHWVRQAPGKGLEWVSSINYNSGYKSYADSVKGRFTISRDNSKNTLYLQMNSLRAEDTAVYYCARAANWHDTALDYWGQGTLVTVSS VL: DIQMTQSPSSLSASVGDRVTITCRASQSIVSYLNWYQQKPGKAPKLLIYYVTNLASGVPSRFSGSGSGTDFTLTISSLQPEDFATYYCQQSYDNPLTFGGGTKVEIK
no binding (tested: 1 uM) | no binding (tested: 1 uM) | 376_F09 (antibody, V domains shown) VH: EVQLLESGGGLVQPGGSLRLSCAASGFTFDSYSMHWVRQAPGKGLEWVSSINYNGGYKSYADSVKGRFTISRDNSKNTLYLQMNSLRAEDTAVYYCARAATWHDTHLDYWGQGTLVTVSS VL: DIQMTQSPSSLSASVGDRVTITCRASQSILTYVNWYQQKPGKAPKLLIYAVTSRASGVPSRFSGSGSGTDFTLTISSLQPEDFATYYCQQSYDTPLTFGGGTKVEIK
no binding (tested: 1 uM) | no binding (tested: 1 uM) | 376_D08 (antibody, V domains shown) VH: EVQLLESGGGLVQPGGSLRLSCAASGFTFDSYGMNWVRQAPGKGLEWVANINYNSGYKSYADSVKGRFTISRDNSKNTLYLQMNSLRAEDTAVYYCARAATWHDTALDYWGQGTLVTVSS VL: DIQMTQSPSSLSASVGDRVTITCRASQSILTYLNWYQQKPGKAPKLVIYYANNRPSGVPSRFSGSGSGTDFTLTISSLQPEDFATYYCQQSYSNPLTFGGGTKVEIK
no binding (tested: 1 uM) | no binding (tested: 1 uM) | 376_G02 (antibody, V domains shown) VH: EVQLLESGGGLVQPGGSLRLSCAASGFTFSDYGMNWVRQAPGKGLEWVSGINYNGGYTSYADSVKGRFTISRDNSKNTLYLQMNSLRAEDTAVYYCARAANWHDTALDYWGQGTLVTVSS VL: DIQMTQSPSSLSASVGDRVTITCRASQSISRYLNWYQQKPGKAPKLVIYAATSLASGVPSRFSGSGSGTDFTLTISSLQPEDFATYYCQQSYDNPLTFGGGTKVEIK
no binding (tested: 1 uM) | no binding (tested: 1 uM) | 374_B02 (antibody, V domains shown) VH: EVQLLESGGGLVQPGGSLRLSCAASGFTFDSYSMHWVRQAPGKGLEWVAGINYNSGYTSYADSVKGRFTISRDNSKNTLYLQMNSLRAEDTAVYYCARAANWHDTHLDYWGQGTLVTVSS VL: DIQMTQSPSSLSASVGDRVTITCRASQSIISYLNWYQQKPGKAPKLLIYAATSRASGVPSRFSGSGSGTDFTLTISSLQPEDFATYYCQQSYDSPLTFGGGTKVEIK

The next lines start with the binder.

Binder | binding [1] | binding [2]
365_B10 (antibody, V domains shown) VH: EVQLLESGGGLVQPGGSLRLSCAASGFTFDDYSMHWVRQAPGKGLEWVASINYNSGYKGYADSVKGRFTISRDNSKNTLYLQMNSLRAEDTAVYYCARAANWHDTALDYWGQGTLVTVSS VL: DIQMTQSPSSLSASVGDRVTITCRASQSILRYLNWYQQKPGKAPKLLIYAATSRASGVPSRFSGSGSGTDFTLTISSLQPEDFATYYCQQSDNLPLTFGGGTKVEIK | no binding (tested: 1 uM) | no binding (tested: 1 uM)
368_B12 (antibody, V domains shown) VH: EVQLLESGGGLVQPGGSLRLSCAASGFTFDSYGMHWVRQAPGKGLEWVSGINYNSGYTSYADSVKGRFTISRDNSKNTLYLQMNSLRAEDTAVYYCARAATWHDTHLDYWGQGTLVTVSS VL: DIQMTQSPSSLSASVGDRVTITCRASQSIVSYVNWYQQKPGKAPKLLIYAATSRASGVPSRFSGSGSGTDFTLTISSLQPEDFATYYCQQSYDLPLTFGGGTKVEIK | no binding (tested: 1 uM) | no binding (tested: 1 uM)
365_G06 (antibody, V domains shown) VH: EVQLLESGGGLVQPGGSLRLSCAASGFTFDSYGMHWVRQAPGKGLEWVAGINYNGGYTSYADSVKGRFTISRDNSKNTLYLQMNSLRAEDTAVYYCARAATWHDTHLDYWGQGTLVTVSS VL: DIQMTQSPSSLSASVGDRVTITCRASQSILSYLNWYQQKPGKAPKLLIYAATSLASGVPSRFSGSGSGTDFTLTISSLQPEDFATYYCQQSDSTPLTFGGGTKVEIK | no binding (tested: 1 uM) | no binding (tested: 1 uM)
367_C07 (antibody, V domains shown) VH: EVQLLESGGGLVQPGGSLRLSCAASGFTFSSYSMNWVRQAPGKGLEWVSSINYNSGYTGYADSVKGRFTISRDNSKNTLYLQMNSLRAEDTAVYYCARGANWHDTHLDYWGQGTLVTVSS VL: DIQMTQSPSSLSASVGDRVTITCRASQSILTYVNWYQQKPGKAPKLLIYAATSRASGVPSRFSGSGSGTDFTLTISSLQPEDFATYYCQQSYNLPLTFGGGTKVEIK | no binding (tested: 1 uM) | no binding (tested: 1 uM)
365_F02 (antibody, V domains shown) VH: EVQLLESGGGLVQPGGSLRLSCAASGFTFSSYSMNWVRQAPGKGLEWVSGINYNGGYKGYADSVKGRFTISRDNSKNTLYLQMNSLRAEDTAVYYCARGANWHDTHLDYWGQGTLVTVSS VL: DIQMTQSPSSLSASVGDRVTITCRASQSILTYVNWYQQKPGKAPKLLIYAATSRHSGVPSRFSGSGSGTDFTLTISSLQPEDFATYYCQQSYDTPLTFGGGTKVEIK | no binding (tested: 1 uM) | no binding (tested: 1 uM)
373_G06 (antibody, V domains shown) VH: EVQLLESGGGLVQPGGSLRLSCAASGFTFSSYGMHWVRQAPGKGLEWVASINYNSGYTGYADSVKGRFTISRDNSKNTLYLQMNSLRAEDTAVYYCARAATWHDTHLDYWGQGTLVTVSS VL: DIQMTQSPSSLSASVGDRVTITCRASQSILSYVNWYQQKPGKAPKLLIYAATSLASGVPSRFSGSGSGTDFTLTISSLQPEDFATYYCQQSYNLPLTFGGGTKVEIK | no binding (tested: 1 uM) | no binding (tested: 1 uM)
370_B06 (antibody, V domains shown) VH: EVQLLESGGGLVQPGGSLRLSCAASGFTFSSYGMHWVRQAPGKGLEWVAGINYNGGYTSYADSVKGRFTISRDNSKNTLYLQMNSLRAEDTAVYYCARAATWHDTHLDYWGQGTLVTVSS VL: DIQMTQSPSSLSASVGDRVTITCRASQSIVSYVNWYQQKPGKAPKLVIYAATSRASGVPSRFSGSGSGTDFTLTISSLQPEDFATYYCQQSYETPLTFGGGTKVEIK | no binding (tested: 1 uM) | no binding (tested: 1 uM)
371_B11 (antibody, V domains shown) VH: EVQLLESGGGLVQPGGSLRLSCAASGFTFSSYSMHWVRQAPGKGLEWVASINYNSGYTSYADSVKGRFTISRDNSKNTLYLQMNSLRAEDTAVYYCARAATWHDTHLDYWGQGTLVTVSS VL: DIQMTQSPSSLSASVGDRVTITCRASQSILTYLNWYQQKPGKAPKLLIYAATSRASGVPSRFSGSGSGTDFTLTISSLQPEDFATYYCQQSYELPLTFGGGTKVEIK | no binding (tested: 1 uM) | no binding (tested: 1 uM)
373_D11 (antibody, V domains shown) VH: EVQLLESGGGLVQPGGSLRLSCAASGFTFSSYGMHWVRQAPGKGLEWVAGINYNGGYTSYADSVKGRFTISRDNSKNTLYLQMNSLRAEDTAVYYCARAATWHDTHLDYWGQGTLVTVSS VL: DIQMTQSPSSLSASVGDRVTITCRASQSILTYVNWYQQKPGKAPKLLIYAATSRASGVPSRFSGSGSGTDFTLTISSLQPEDFATYYCQQSYDNPLTFGGGTKVEIK | no binding (tested: 1 uM) | no binding (tested: 1 uM)
369_A12 (antibody, V domains shown) VH: EVQLLESGGGLVQPGGSLRLSCAASGFTFSSYSMHWVRQAPGKGLEWVASINYNSGYTGYADSVKGRFTISRDNSKNTLYLQMNSLRAEDTAVYYCARAATWHDTHLDYWGQGTLVTVSS VL: DIQMTQSPSSLSASVGDRVTITCRASQSILTYLNWYQQKPGKAPKLLIYAATSRHSGVPSRFSGSGSGTDFTLTISSLQPEDFATYYCQQSYDLPLTFGGGTKVEIK | no binding (tested: 1 uM) | no binding (tested: 1 uM)
367_F10 (antibody, V domains shown) VH: EVQLLESGGGLVQPGGSLRLSCAASGFTFDSYGMNWVRQAPGKGLEWVSGINYNSGYTSYADSVKGRFTISRDNSKNTLYLQMNSLRAEDTAVYYCARAATWHDTHLDYWGQGTLVTVSS VL: DIQMTQSPSSLSASVGDRVTITCRASQSILTYLNWYQQKPGKAPKLLIYAATSRASGVPSRFSGSGSGTDFTLTISSLQPEDFATYYCQQSYDTPLTFGGGTKVEIK | no binding (tested: 1 uM) | no binding (tested: 1 uM)
371_C02 (antibody, V domains shown) VH: EVQLLESGGGLVQPGGSLRLSCAASGFTFDSYGMHWVRQAPGKGLEWVAGINYNSGYTGYADSVKGRFTISRDNSKNTLYLQMNSLRAEDTAVYYCARAATWHDTHLDYWGQGTLVTVSS VL: DIQMTQSPSSLSASVGDRVTITCRASQSILTYVNWYQQKPGKAPKLLIYAASSLQSGVPSRFSGSGSGTDFTLTISSLQPEDFATYYCQQSYDTPLTFGGGTKVEIK | no binding (tested: 1 uM) | no binding (tested: 1 uM)
